Measured values as given in paper PMC4778017.
No constants are given. Whether binding was seen depends on the method and setting. For some of these results: Binding can be weak; no strength is given.

T1: full-length mouse BetaM (ATP1B4), GAL4 DNA binding domain bait (mouse) (UniProt Q99ME6)
T1 sequence: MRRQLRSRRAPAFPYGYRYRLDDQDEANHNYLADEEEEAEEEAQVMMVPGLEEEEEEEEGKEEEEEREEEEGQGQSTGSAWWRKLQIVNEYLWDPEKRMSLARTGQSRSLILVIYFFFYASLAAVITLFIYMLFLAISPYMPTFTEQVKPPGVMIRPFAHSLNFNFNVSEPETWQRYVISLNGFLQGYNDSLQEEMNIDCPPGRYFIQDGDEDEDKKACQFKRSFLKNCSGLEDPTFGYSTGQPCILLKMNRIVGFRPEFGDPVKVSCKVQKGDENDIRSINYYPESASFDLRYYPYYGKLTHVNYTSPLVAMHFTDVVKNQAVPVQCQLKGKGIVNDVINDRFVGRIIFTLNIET

T2: chicken BetaM (chicken) (UniProt Q2HZ96)
T2 sequence: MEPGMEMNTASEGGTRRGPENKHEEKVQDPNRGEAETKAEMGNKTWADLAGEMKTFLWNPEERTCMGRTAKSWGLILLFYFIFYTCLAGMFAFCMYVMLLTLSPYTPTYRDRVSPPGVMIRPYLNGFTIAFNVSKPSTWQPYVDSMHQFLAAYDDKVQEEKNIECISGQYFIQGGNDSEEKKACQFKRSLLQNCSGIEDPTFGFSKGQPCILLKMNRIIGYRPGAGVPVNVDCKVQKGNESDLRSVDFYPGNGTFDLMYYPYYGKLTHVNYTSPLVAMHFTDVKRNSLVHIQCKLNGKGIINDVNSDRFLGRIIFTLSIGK

B1: PHF3 prey, residues 168-397 (N-term. truncated) (domain or fragment, UniProt B2RQG2 168-397)
chain: SKVGVKPAERCQGKEEVYASLKSEHPKESRRSGRHAEQMDVAPEVSASSVDSSVSSCAGMKEEAEFDPKHACNNQGEVNVPSPELDCPLLSETSASVEEKNIEALMECKAKTNSSPLFKFPVREDEQSDLVSGELNDTIEGKDAGGKPDQESEEVKFPCEGDQTAEEPESSDVSSDSACANKNKAEKNEGAECHLELKNTVDIVDKPENSPQRNELETLGYGEDTESNDA
B2: Heme oxidase 2/HMOX2 prey (protein, UniProt O70252 1-315)
chain: MSSEVETSEGVDESEKNSMAPEKENHTKMADLSELLKEGTKEAHDRAENTQFVKDFLKGNIKKELFKLATTALYFTYSALEEEMDRNKDHPAFAPLYFPTELHRKAALIKDMKYFFGENWEEQVKCSEAAQKYVDRIHYVGQNEPELLVAHAYTRYMGDLSGGQVLKKVAQRALKLPSTGEGTQFYLFEHVDNAQQFKQFYRARMNALDLNLKTKERIVEEANKAFEYNMQIFSELDQAGSMLARETLEDGLPVHDGKGDIRKCPFYAAQPDKGTLGGSNCPFQTTVAVLRKPSLQLILAASVALVAGLLAWYYM

Legend:
[1] = biological target: T1, full-length mouse BetaM (ATP1B4), GAL4 DNA binding domain bait (mouse); experiment: two-hybrid; GAL4 yeast two-hybrid screen of a pretransformed 17 day mouse embryo cDNA library (Y187) with full-length mouse BetaM bait in AH109; mating, SD/-Trp/-Leu/-His 5 days at 30 °C, then SD/-Ade/-Trp/-Leu/-His with α-X-Gal; confirmed by co-transformation and mating with isolated prey plasmids
chicken BetaM (chicken) = biological target: T2, chicken BetaM (chicken); experiment: two-hybrid; chicken homologs of the interactors tested cross-wise with chicken and mouse BetaM and the mouse interactors, by the criteria of the library screening
[2] = biological target: N-terminal domain of BetaM (mouse) (UniProt Q99ME6); experiment: two-hybrid; pairwise two-hybrid tests of truncated forms of BetaM with the interactors (named as two-hybrid test for SKIP in Figure 1; the method is not named for the other interactors)

Molecule	binding [1]	also measured
ERGIC3 prey	binds	
Heme oxidase 1/HMOX1 prey, residues 200-389 as printed (N-term. truncated) (domain or fragment)	binds	
LAP1/TOR1AIP2 prey, residues 96-520 (N-term. truncated) (domain or fragment)	binds	
Syne-1/nesprin-1 prey, residues 566-949 (KASH domain containing) (domain or fragment)	binds	
chicken SKIP		binding (chicken BetaM (chicken)): no binding
B1		binding [2]: binds
B2		binding [2]: binds
